Consider 1 molecule from paper PMC5814901.

No constants are given. Whether binding was seen depends on the method and setting. A result given as binding can be weak or reduced; the word gives no strength.

Assay [1] has as its target ZnG–UvrA (UvrA in which the tip of the C-terminal zinc finger is removed) (Bacillus caldotenax). In words: single-molecule fluorescence imaging of Qdot-labelled complexes on damaged DNA tightropes; λ-DNA tightropes with one fluorescein-dT lesion marked by streptavidin Qdot565; UvrAB singly labelled on UvrB with Qdot655; complexes bound to DNA counted; room temperature; ABC buffer; both purified.

Assay [2] addresses UvrA (Bacillus caldotenax) (Bacillus caldotenax). Described as above.

B1: UvrB (Bacillus caldotenax) (protein, UniProt P56981 1-658)
chain: MVEGRFQLVAPYEPQGDQPQAIAKLVDGLRRGVKHQTLLGATGTGKTFTISNVIAQVNKPTLVIAHNKTLAGQLYSELKEFFPHNAVEYFVSYYDYYQPEAYVPQTDTYIEKDAKINDEIDKLRHSATSALFERRDVIIVASVSCIYGLGSPEEYRELVVSLRVGMEIERNALLRRLVDIQYDRNDIDFRGTFRVRGDVVEIFPASRDEHCIRVEFFGDEIERIREVDALTGKVLGEREHVAIFPASHFVTREEKMRLAIQNIEQELEERLAELRAQGKLLEAQRLEQRTRYDLEMMREMGFCSGIENYSRHLALRPPGSTPYTLLDYFPDDFLIIVDESHVTLPQLRGMYNGDRARKQVLVDHGFRLPSALDNRPLTFEEFEQKINQIIYVSATPGPYELEHSPGVVEQIIRPTGLLDPTIDVRPTKGQIDDLIGEIRERVERNERTLVTTLTKKMAEDLTDYLKEAGIKVAYLHSEIKTLERIEIIRDLRLGKYDVLVGINLLREGLDIPEVSLVAILDADKEGFLRSERSLIQTIGRAARNANGHVIMYADTITKSMEIAIQETKRRRAIQEEYNRKHGIVPRTVKKEIRDVIRATYAAEETEMYEAKPAAAMTKQEREELIRTLEAEMKEAAKALDFERAAQLRDIIFELKAEG
As to B1, the binding entry in assay [1] and in assay [2] was “binds” throughout.
